Results from PMC9063446, “Biochemical and in silico identification of the active site and the catalytic mechanism of the circadian deadenylase HESPERIN” (FEBS Open Bio, 2022).
No constants are given. Whether binding was seen depends on the method and setting.

Target: AtHESPERIN (Arabidopsis thaliana) (UniProt A8MS41)
Experiment: native gel or EMSA; 7% PAGE under nondenaturing conditions for acidic proteins; 16 ug AtHESPERIN incubated with urea, more than 4 M (up to 8 M); both purified

B1: AtHESPERIN (enzyme, Arabidopsis thaliana, UniProt A8MS41 1-417, looked up)
chain: MFSSTTLHHLPRPNLLLPRKVISRRMSTNPAIEPKVRKFESVEGVDIGSRNKSDGFFAIPLYLSKLVALYNCISLSRIGTSNENFVFSGIRFRLVSYNILAQVYVKSALLPHSPPACLKWKARSHAILSVLKNLQADFFCLQEVDEYDSFYRNNMDSLGYSGIYIQRTGQRKRDGCAIFYKPSCAELVTKERIEYNDLVDSIKADSVSCSEQKIETSNEGKDSRKDSRDLNDPLVRLKRDCVGIMAAFRINKPFQHIVIVANTHLYWDPELADVKLAQAKYLLSRLAQFKTLISDEFECTPSLLLAGDFNSIPGDMVYSYLVSGNAKPTETIEEEEAPVPLSSVYEVTRGEPKFTNCTPGFTNTLDYIFISPSDFIKPVSILQLPEPDSPDVVGFLPNHHHPSDHLPIGAEFEIRRE
notes: AtHESPERIN (Hesperin), circadian EEP deadenylase of Arabidopsis thaliana, UniProtKB A8MS41; cDNA cloned in pATHRA behind 6x His tag and HRV 3C site; The His tag was removed with HRV 3C protease (site LEVLFQ/GP), so residues of the site may be left at the N-terminus; It calls the oligomer mainly trimeric; also called native AtHESPERIN; wild-type AtHESPERIN; source: E. coli BL21-GOLD (DE3), …
With B1 the binding was “no binding (condition: with more than 4 M urea)”.
